Source: PubChem BioAssay
The list shows a part of the results. These are further read-outs of the screen, such as a control signal, another cell line or another target. No call is given for them. Most of these compounds were active or inconclusive in the main read-out, so they are no random draw.

Experiment: inhibitors of TNFa-induced NFkB p65 translocation, primary screen, imaging, HUVEC, MLSMR starter and 10KST1 sets (AID 438);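 also: compound added about 3h40 before a 20 min TNFalpha stimulation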
Conditions: HUVEC TNFa-induced p65 nuclear translocation, measured here: nuclei count (cytotoxicity indicator), at 2.08 µM

O=C(COc1ccc2ccccc2c1)N1CCN(C2CCN(Cc3ccccc3)CC2)CC1
cell count: 511
